Molecular target: D(2) dopamine receptor (Homo sapiens, UniProt P14416)
Assay: Displacement of [3H]-spiperone from human dopamine D2L receptor expressed in CHO cell membranes after 3 hrs by liquid scintillation counting analysis
Summary of the method: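 Competition against the radiolabeled antagonist [3H]spiperone at human D2L receptor in FlpIn CHO cell membranes. Affinity is reported as Ki.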

Protein sequences, listed by entry. Tags and fused reporters are not part of them.
UniProt P14416, whole entry: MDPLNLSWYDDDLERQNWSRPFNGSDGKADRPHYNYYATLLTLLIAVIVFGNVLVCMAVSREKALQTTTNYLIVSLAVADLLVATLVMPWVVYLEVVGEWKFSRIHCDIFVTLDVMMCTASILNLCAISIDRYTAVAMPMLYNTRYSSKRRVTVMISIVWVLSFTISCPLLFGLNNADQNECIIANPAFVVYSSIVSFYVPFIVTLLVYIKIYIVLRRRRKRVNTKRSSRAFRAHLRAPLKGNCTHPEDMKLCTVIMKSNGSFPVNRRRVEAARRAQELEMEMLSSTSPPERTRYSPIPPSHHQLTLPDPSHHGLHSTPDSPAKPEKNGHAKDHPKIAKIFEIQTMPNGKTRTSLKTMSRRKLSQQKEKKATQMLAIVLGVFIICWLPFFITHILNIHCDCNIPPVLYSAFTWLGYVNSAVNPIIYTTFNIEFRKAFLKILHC

CC(=O)N[C@H]1CC[C@H](CCN2CCc3ccccc3C2)CC1
Ki: 6.03 µM

From ChEMBL document CHEMBL3085627 (J Med Chem, 2013)
